Article PMC8539224
These are yes or no findings as the source states them, for the method shown. Binding calls can cover weak binding; strength is not graded here.

Sequences of proteins named here, by UniProt entry; tags and fusion partners are left off. A change or cut given only in a name is not applied to a line headed by its entry.
UniProt Q9LQ89: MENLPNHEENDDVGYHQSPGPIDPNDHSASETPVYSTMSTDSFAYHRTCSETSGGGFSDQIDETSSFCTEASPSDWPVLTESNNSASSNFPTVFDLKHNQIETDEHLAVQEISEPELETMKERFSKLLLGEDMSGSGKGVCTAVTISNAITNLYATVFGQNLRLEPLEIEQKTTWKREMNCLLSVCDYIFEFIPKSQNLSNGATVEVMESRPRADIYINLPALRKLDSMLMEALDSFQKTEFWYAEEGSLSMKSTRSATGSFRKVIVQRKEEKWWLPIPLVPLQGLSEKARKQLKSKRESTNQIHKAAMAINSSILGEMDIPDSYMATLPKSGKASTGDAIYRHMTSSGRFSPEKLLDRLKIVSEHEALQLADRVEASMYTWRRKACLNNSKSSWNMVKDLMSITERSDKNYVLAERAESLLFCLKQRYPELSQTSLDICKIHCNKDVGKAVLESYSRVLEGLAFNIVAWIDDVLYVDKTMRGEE
UniProt P92978: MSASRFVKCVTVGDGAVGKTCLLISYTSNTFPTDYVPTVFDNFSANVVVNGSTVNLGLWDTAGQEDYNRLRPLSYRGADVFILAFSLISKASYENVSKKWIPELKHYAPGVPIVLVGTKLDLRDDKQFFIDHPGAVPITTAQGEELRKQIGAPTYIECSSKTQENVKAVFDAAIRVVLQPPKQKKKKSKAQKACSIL

Molecular target: GEF2 (Arabidopsis RopGEF, upstream regulator of ROP1) (Arabidopsis thaliana) (UniProt Q9LQ89)
Test: two-hybrid; S. cerevisiae AH109 co-transformed with AtROP1 and its mutants in pGADT7-Dest and GEF2 or RIC2 in pGBKT7; leu- trp- selection for transformation, his- ade- selection for interaction (0, 1, 3 or 10 mM 3-AT where required)

Substance | binding
Arabidopsis ROP1 GTPase S97A (from UniProt P92978 1-197) | binds
Arabidopsis ROP1 GTPase, constitutive active (G15V) with S97E (from UniProt P92978 1-197) | binds
Arabidopsis ROP1 GTPase S97E (from UniProt P92978 1-197) | binds
Arabidopsis ROP1 GTPase, constitutive active (G15V) with S97A (from UniProt P92978 1-197) | binds
Arabidopsis ROP1 GTPase, wild type (AtROP1 WT) (from UniProt P92978 1-197) | binds
Arabidopsis ROP1 GTPase, constitutive active (CA, G15V) (from UniProt P92978 1-197) | binds
